Experimental data reported in the supplement of paper PMC12823440, “Inhibitors supercharge kinase turnover through native proteolytic circuits” (Nature, 2025).
Some of the results follow. The calls rarely recur for the same compound in another form.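 Kinases were expressed as nanoluciferase fusions in K562 cells and luminescence was read every 4 h between 2 and 18 h as percent of control, DMSO set to 100% and a positive control to 0%. A time point counts as decreased when the signal drops significantly (2 sigma). The hit call is the authors' own, does not follow from the count of time points alone, and its rule is not shown.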

Amino acid sequences for entries named in this document (tags omitted). A change or cut given only in a name is not applied to a line headed by its entry.
UniProt P31749: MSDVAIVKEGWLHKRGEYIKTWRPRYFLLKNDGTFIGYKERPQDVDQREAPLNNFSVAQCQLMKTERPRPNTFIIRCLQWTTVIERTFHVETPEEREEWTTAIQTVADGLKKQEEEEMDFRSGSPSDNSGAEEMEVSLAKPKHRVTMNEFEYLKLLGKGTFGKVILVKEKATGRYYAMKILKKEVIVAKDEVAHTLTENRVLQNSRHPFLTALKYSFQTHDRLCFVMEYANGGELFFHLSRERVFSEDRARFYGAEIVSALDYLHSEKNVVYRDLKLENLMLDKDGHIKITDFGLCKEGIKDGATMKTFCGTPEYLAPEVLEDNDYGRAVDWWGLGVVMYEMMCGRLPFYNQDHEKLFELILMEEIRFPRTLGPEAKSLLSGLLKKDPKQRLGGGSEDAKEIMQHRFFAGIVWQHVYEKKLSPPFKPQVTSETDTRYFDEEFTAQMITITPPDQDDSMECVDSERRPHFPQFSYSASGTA
UniProt Q9UM73: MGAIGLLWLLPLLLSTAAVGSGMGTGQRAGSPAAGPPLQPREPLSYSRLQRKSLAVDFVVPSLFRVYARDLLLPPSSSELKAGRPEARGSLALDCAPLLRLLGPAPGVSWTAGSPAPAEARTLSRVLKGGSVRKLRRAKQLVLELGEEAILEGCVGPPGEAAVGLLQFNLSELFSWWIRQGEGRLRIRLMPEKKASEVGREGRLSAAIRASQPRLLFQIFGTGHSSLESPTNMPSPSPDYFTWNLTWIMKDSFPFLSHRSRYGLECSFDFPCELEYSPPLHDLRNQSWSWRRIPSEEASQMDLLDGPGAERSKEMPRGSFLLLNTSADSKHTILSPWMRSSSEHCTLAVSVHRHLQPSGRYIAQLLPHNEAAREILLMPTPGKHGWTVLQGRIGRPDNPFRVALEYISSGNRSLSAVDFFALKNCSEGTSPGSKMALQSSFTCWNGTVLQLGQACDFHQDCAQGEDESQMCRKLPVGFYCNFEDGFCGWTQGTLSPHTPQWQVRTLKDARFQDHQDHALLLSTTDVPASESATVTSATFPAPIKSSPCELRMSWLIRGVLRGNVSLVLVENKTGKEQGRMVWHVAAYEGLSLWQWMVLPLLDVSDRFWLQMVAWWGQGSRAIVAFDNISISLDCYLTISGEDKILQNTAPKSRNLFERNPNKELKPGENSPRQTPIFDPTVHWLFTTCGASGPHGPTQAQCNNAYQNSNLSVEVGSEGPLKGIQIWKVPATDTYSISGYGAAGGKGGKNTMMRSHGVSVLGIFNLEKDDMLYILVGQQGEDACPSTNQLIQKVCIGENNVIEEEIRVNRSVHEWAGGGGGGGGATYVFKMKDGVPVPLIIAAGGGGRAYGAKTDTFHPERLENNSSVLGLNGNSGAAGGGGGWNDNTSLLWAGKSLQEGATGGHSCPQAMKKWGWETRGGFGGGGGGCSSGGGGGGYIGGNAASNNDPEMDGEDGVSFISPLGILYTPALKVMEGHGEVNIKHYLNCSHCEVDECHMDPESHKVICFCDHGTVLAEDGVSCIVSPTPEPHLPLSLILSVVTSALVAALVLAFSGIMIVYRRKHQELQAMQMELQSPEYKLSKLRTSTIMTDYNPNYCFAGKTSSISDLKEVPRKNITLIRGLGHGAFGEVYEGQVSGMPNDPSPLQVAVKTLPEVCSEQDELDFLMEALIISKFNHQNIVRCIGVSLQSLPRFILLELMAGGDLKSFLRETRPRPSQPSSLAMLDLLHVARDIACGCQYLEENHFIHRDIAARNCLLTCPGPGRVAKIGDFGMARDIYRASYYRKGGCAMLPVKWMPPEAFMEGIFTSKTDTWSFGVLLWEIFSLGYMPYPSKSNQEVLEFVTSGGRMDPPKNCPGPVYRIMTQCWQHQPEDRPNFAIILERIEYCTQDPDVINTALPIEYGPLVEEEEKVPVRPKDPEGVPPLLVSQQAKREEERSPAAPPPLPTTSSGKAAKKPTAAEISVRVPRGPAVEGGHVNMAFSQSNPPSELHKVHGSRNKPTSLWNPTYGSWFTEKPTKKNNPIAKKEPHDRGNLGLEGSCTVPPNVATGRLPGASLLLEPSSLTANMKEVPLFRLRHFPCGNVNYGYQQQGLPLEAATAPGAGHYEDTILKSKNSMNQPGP
UniProt Q96GD4, whole entry: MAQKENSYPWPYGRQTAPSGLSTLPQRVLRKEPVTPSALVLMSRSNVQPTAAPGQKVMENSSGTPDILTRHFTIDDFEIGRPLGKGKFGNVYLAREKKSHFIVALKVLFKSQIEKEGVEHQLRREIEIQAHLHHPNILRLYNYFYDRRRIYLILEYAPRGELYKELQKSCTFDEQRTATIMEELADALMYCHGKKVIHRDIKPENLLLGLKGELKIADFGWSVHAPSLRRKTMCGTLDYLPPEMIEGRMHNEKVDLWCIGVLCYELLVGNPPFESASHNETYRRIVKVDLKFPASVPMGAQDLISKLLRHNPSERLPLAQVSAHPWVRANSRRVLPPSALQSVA
UniProt Q9UQB9: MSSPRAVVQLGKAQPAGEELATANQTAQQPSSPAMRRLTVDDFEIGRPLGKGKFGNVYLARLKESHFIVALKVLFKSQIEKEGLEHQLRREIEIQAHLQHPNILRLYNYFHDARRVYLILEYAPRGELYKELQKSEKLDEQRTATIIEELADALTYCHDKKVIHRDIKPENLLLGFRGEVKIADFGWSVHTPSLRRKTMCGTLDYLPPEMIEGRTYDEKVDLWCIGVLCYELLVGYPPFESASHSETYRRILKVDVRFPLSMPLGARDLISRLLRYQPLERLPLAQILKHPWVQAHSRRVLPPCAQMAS
UniProt P51451: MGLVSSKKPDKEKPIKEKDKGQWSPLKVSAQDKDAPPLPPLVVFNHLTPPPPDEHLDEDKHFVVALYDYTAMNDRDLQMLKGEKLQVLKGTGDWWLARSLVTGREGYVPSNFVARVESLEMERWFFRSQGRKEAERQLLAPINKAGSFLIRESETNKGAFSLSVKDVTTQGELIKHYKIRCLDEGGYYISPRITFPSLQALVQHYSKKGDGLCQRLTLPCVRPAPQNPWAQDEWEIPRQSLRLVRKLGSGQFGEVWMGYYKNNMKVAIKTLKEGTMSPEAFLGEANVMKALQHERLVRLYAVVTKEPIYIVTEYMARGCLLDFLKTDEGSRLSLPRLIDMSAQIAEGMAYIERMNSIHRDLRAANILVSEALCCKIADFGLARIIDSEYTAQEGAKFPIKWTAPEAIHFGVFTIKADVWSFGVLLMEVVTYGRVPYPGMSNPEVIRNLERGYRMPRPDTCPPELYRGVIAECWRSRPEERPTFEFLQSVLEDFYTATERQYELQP
UniProt P51813: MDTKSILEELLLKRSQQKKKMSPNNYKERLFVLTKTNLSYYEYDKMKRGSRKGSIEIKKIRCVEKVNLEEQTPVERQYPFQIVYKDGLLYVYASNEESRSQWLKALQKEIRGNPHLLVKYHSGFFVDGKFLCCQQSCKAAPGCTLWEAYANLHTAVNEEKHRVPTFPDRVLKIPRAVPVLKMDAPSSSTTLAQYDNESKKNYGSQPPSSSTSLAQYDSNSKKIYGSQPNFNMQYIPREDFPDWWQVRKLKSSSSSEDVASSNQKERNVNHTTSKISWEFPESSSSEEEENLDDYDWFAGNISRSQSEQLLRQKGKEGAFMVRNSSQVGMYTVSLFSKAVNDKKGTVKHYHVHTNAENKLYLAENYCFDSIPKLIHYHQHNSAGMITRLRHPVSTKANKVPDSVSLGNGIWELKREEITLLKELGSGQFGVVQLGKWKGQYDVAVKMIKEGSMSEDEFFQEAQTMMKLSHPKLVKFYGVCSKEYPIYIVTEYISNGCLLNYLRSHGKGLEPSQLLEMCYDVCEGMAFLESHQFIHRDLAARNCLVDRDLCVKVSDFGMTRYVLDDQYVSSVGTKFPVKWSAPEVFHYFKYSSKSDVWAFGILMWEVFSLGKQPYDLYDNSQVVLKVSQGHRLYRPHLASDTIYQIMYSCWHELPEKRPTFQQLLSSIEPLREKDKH
UniProt Q06187: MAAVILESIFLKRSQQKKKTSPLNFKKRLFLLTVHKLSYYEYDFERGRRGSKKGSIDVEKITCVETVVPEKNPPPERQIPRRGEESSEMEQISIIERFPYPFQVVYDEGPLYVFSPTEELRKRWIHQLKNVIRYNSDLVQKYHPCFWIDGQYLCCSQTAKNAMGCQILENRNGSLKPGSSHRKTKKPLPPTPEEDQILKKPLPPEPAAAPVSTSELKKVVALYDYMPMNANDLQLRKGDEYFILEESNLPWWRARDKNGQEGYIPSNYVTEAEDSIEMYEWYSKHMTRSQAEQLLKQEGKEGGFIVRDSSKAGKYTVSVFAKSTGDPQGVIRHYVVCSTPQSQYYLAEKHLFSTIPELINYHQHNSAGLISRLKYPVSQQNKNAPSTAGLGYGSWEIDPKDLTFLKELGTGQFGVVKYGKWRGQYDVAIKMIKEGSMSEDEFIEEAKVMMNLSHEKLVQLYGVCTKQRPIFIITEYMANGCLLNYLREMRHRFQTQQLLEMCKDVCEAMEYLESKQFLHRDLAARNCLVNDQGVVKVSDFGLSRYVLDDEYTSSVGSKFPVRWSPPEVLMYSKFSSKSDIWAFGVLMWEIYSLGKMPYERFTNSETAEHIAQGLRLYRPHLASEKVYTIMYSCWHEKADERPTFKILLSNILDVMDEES
UniProt Q13555: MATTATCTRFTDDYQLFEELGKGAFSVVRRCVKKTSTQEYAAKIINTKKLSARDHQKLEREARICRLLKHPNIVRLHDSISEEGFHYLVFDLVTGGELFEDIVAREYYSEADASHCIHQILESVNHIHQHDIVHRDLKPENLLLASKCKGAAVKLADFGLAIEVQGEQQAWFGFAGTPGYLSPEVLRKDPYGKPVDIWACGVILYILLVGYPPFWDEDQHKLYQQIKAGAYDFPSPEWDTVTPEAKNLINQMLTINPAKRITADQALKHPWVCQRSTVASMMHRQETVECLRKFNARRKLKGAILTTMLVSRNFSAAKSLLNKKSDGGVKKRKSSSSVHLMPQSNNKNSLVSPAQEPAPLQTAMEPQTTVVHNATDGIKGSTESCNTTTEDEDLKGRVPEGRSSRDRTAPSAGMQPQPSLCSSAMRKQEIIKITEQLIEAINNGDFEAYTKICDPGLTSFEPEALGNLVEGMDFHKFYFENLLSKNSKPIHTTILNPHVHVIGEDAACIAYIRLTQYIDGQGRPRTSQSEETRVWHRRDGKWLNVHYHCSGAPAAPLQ
UniProt Q15131: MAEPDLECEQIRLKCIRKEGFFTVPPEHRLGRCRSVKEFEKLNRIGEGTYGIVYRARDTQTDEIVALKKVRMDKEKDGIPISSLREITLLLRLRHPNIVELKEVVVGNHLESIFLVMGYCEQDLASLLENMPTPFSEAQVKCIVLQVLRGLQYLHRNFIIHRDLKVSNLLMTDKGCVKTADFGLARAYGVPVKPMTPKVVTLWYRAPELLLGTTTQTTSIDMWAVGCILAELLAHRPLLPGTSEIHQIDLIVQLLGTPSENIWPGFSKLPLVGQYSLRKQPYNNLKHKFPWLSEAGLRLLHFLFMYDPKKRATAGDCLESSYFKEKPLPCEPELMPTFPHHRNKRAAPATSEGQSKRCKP
UniProt P11802: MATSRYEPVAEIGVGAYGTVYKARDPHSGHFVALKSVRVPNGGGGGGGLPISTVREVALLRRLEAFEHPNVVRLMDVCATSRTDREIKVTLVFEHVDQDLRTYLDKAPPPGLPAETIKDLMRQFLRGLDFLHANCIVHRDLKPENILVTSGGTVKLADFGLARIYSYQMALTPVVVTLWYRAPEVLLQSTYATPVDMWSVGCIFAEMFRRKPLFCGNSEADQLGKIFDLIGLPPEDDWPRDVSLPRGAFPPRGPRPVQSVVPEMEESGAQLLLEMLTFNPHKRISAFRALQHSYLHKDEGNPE
UniProt Q00535, whole entry, looked up: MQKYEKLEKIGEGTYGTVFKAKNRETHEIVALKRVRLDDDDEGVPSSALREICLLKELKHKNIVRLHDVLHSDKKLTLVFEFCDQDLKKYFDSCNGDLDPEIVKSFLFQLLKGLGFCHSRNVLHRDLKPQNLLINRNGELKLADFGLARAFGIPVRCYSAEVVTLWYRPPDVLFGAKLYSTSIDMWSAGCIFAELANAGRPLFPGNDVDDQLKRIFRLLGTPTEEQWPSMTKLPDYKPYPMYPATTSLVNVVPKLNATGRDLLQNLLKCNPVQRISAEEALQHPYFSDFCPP
UniProt Q00534, whole entry: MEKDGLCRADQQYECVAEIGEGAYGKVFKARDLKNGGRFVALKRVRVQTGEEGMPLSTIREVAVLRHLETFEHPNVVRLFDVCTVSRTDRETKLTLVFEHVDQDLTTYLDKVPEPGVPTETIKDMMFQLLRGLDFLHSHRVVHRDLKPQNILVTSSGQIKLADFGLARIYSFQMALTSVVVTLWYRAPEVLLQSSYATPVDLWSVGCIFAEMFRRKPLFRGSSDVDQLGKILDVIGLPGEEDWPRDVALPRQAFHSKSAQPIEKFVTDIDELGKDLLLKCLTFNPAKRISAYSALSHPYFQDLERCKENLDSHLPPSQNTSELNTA

Experiments:
Assay in all cases: kinase-Nluc reporter destabilization hit call (1 = scored as downregulated) (binary); higher = compound decreases kinase abundance
Conditions in all cases: K562; 2-18 h
ABL1 = ABL1 (UniProt P00519)
AKT1 = AKT1 (UniProt P31749)
ALK = ALK (UniProt Q9UM73)
ARAF = ARAF (UniProt P10398)
AURKA = AURKA (UniProt O14965)
AURKB = AURKB (UniProt Q96GD4)
AURKC = AURKC (UniProt Q9UQB9)
BLK = BLK (UniProt P51451)
BMX = BMX (UniProt P51813)
BRAF = BRAF (UniProt P15056)
BRAF_V600E = tested on: BRAF_V600E
BTK = BTK (UniProt Q06187)
CAMK2A = CAMK2A (UniProt Q9UQM7)
CAMK2G = CAMK2G (UniProt Q13555)
CDK10 = CDK10 (UniProt Q15131)
CDK2 = CDK2 (UniProt P24941)
CDK3 = CDK3 (UniProt Q00526)
CDK4 = CDK4 (UniProt P11802)
CDK5 = CDK5 (UniProt Q00535)
CDK6 = CDK6 (UniProt Q00534)

Row | Structure (SMILES) | kinase-Nluc reporter destabilization hit call (ABL1) | kinase-Nluc reporter destabilization hit call (AKT1) | kinase-Nluc reporter destabilization hit call (ALK) | kinase-Nluc reporter destabilization hit call (ARAF) | kinase-Nluc reporter destabilization hit call (AURKA) | kinase-Nluc reporter destabilization hit call (AURKB) | kinase-Nluc reporter destabilization hit call (AURKC) | kinase-Nluc reporter destabilization hit call (BLK) | kinase-Nluc reporter destabilization hit call (BMX) | kinase-Nluc reporter destabilization hit call (BRAF) | kinase-Nluc reporter destabilization hit call (BRAF_V600E) | kinase-Nluc reporter destabilization hit call (BTK) | kinase-Nluc reporter destabilization hit call (CAMK2A) | kinase-Nluc reporter destabilization hit call (CAMK2G) | kinase-Nluc reporter destabilization hit call (CDK10) | kinase-Nluc reporter destabilization hit call (CDK2) | kinase-Nluc reporter destabilization hit call (CDK3) | kinase-Nluc reporter destabilization hit call (CDK4) | kinase-Nluc reporter destabilization hit call (CDK5) | kinase-Nluc reporter destabilization hit call (CDK6)
1 | Cc1cc(Nc2cc(N)ncn2)c(=O)n2c1C(=O)NC21CCCCC1 [Tomivosertib] (10 µM) | inactive: 0 | inactive: 0 | inactive: 0 | inactive: 0 | inactive: 0 | inactive: 0 | inactive: 0 | inactive: 0 | inactive: 0 | inactive: 0 | inactive: 0 | inactive: 0 | inactive: 0 | inactive: 0 | inactive: 0 | inactive: 0 | inactive: 0 | inactive: 0 | inactive: 0 | inactive: 0
2 | O=C(c1cccc(Cl)c1F)N1CCN(Cc2cccc(Nc3nccs3)n2)CC1 (2.5 µM) | inactive: 0 | inactive: 0 | inactive: 0 | inactive: 0 | inactive: 0 | inactive: 0 | inactive: 0 | inactive: 0 | inactive: 0 | inactive: 0 | inactive: 0 | inactive: 0 | inactive: 0 | inactive: 0 | inactive: 0 | inactive: 0 | inactive: 0 | inactive: 0 | inactive: 0 | inactive: 0
3 | C=CC(=O)Nc1cccc(Oc2nc(Nc3ccc(N4CCN(C)CC4)c(F)c3)nc3[nH]ccc23)c1 [Avitinib (maleate)] (2.5 µM) | active: 1 | inactive: 0 | inactive: 0 | inactive: 0 | inactive: 0 | inactive: 0 | inactive: 0 | inactive: 0 | inactive: 0 | inactive: 0 | inactive: 0 | inactive: 0 | inactive: 0 | inactive: 0 | inactive: 0 | inactive: 0 | inactive: 0 | inactive: 0 | inactive: 0 | inactive: 0
4 | CC1(N)CCN(c2cccnc2NC(=O)c2nc(-c3ncccc3C(F)(F)F)cnc2N)CC1 [Darovasertib] (10 µM) | inactive: 0 | inactive: 0 | inactive: 0 | inactive: 0 | inactive: 0 | inactive: 0 | inactive: 0 | inactive: 0 | inactive: 0 | inactive: 0 | inactive: 0 | inactive: 0 | inactive: 0 | inactive: 0 | inactive: 0 | inactive: 0 | inactive: 0 | inactive: 0 | inactive: 0 | inactive: 0
5 | Nc1nc(N)c2nc(-c3cccc(O)c3)c(-c3cccc(O)c3)nc2n1 (10 µM) | inactive: 0 | inactive: 0 | inactive: 0 | inactive: 0 | inactive: 0 | inactive: 0 | inactive: 0 | inactive: 0 | inactive: 0 | inactive: 0 | inactive: 0 | inactive: 0 | inactive: 0 | inactive: 0 | inactive: 0 | inactive: 0 | inactive: 0 | inactive: 0 | inactive: 0 | inactive: 0
6 | C=CC(=O)N1CCC[C@@H](n2nc(-c3ccc(Oc4ccccc4)cc3)c3c(N)n[nH]c(=O)c32)C1 [BTK inhibitor 17] (10 µM) | inactive: 0 | inactive: 0 | inactive: 0 | inactive: 0 | inactive: 0 | inactive: 0 | inactive: 0 | inactive: 0 | inactive: 0 | inactive: 0 | inactive: 0 | inactive: 0 | inactive: 0 | inactive: 0 | inactive: 0 | inactive: 0 | inactive: 0 | inactive: 0 | inactive: 0 | inactive: 0
7 | Cc1cccc(COc2cccc(/C=C3\C(=O)NN(c4ccccc4)C3=O)c2)c1 (10 µM) | inactive: 0 | inactive: 0 | inactive: 0 | inactive: 0 | inactive: 0 | inactive: 0 | inactive: 0 | inactive: 0 | inactive: 0 | inactive: 0 | inactive: 0 | inactive: 0 | inactive: 0 | inactive: 0 | inactive: 0 | inactive: 0 | inactive: 0 | inactive: 0 | inactive: 0 | inactive: 0
8 | Cn1c(CNc2cccc(C(=O)NCc3ccccc3C(F)(F)F)c2)nnc1-c1ccncc1 (10 µM) | inactive: 0 | inactive: 0 | inactive: 0 | inactive: 0 | inactive: 0 | inactive: 0 | inactive: 0 | inactive: 0 | inactive: 0 | inactive: 0 | inactive: 0 | inactive: 0 | inactive: 0 | inactive: 0 | inactive: 0 | inactive: 0 | inactive: 0 | inactive: 0 | inactive: 0 | inactive: 0
9 | O=Nc1c(-c2c(O)[nH]c3cc(Br)ccc23)[nH]c2ccccc12 [GSK 3 Inhibitor IX] (2.5 µM) | inactive: 0 | inactive: 0 | inactive: 0 | inactive: 0 | inactive: 0 | inactive: 0 | inactive: 0 | inactive: 0 | inactive: 0 | inactive: 0 | inactive: 0 | inactive: 0 | inactive: 0 | inactive: 0 | inactive: 0 | inactive: 0 | inactive: 0 | inactive: 0 | inactive: 0 | inactive: 0
10 | Cc1cc(C(=O)NOCCO)c(Nc2ccc(I)cc2F)n(C)c1=O (10 µM) | inactive: 0 | inactive: 0 | inactive: 0 | inactive: 0 | inactive: 0 | inactive: 0 | inactive: 0 | inactive: 0 | inactive: 0 | inactive: 0 | inactive: 0 | inactive: 0 | inactive: 0 | inactive: 0 | inactive: 0 | inactive: 0 | inactive: 0 | inactive: 0 | inactive: 0 | inactive: 0
11 | COc1cc(-c2oc3cc(O)cc(O)c3c(=O)c2O)ccc1O [Isorhamnetin] (10 µM) | inactive: 0 | inactive: 0 | inactive: 0 | inactive: 0 | inactive: 0 | inactive: 0 | inactive: 0 | inactive: 0 | inactive: 0 | inactive: 0 | inactive: 0 | inactive: 0 | inactive: 0 | inactive: 0 | inactive: 0 | inactive: 0 | inactive: 0 | inactive: 0 | inactive: 0 | inactive: 0
12 | C#Cc1cccc(Nc2ncnc3cc(OC)c(NC(=O)N4C[C@H]5CCN(C)[C@H]5C4)cc23)c1 [Theliatinib] (10 µM) | inactive: 0 | inactive: 0 | inactive: 0 | inactive: 0 | inactive: 0 | inactive: 0 | inactive: 0 | inactive: 0 | inactive: 0 | inactive: 0 | inactive: 0 | inactive: 0 | inactive: 0 | inactive: 0 | inactive: 0 | inactive: 0 | inactive: 0 | inactive: 0 | inactive: 0 | inactive: 0
13 | O=C(Nc1ccc(Cl)cc1)C1CCCN(C(=O)c2cc(C(F)(F)F)cc(C(F)(F)F)c2)C1 (stereo not given) (10 µM) | inactive: 0 | inactive: 0 | inactive: 0 | inactive: 0 | inactive: 0 | inactive: 0 | inactive: 0 | inactive: 0 | inactive: 0 | inactive: 0 | inactive: 0 | inactive: 0 | inactive: 0 | inactive: 0 | inactive: 0 | inactive: 0 | inactive: 0 | inactive: 0 | inactive: 0 | inactive: 0
14 | NC[C@@](O)(c1ccc(Cl)cc1)c1ccc(-c2cn[nH]c2)cc1 (10 µM) | inactive: 0 | inactive: 0 | inactive: 0 | inactive: 0 | inactive: 0 | inactive: 0 | inactive: 0 | inactive: 0 | inactive: 0 | inactive: 0 | inactive: 0 | inactive: 0 | inactive: 0 | inactive: 0 | inactive: 0 | inactive: 0 | inactive: 0 | inactive: 0 | inactive: 0 | inactive: 0
15 | C[C@@H]1O[C@@H](Oc2cc(O)c3c(=O)c(O[C@@H]4O[C@@H](C)[C@H](O)[C@@H](O)[C@H]4O)c(-c4ccc(O)cc4)oc3c2)[C@H](O)[C@H](O)[C@H]1O [Kaempferitrin] (10 µM) | inactive: 0 | inactive: 0 | inactive: 0 | inactive: 0 | inactive: 0 | inactive: 0 | inactive: 0 | inactive: 0 | inactive: 0 | inactive: 0 | inactive: 0 | inactive: 0 | inactive: 0 | inactive: 0 | inactive: 0 | inactive: 0 | inactive: 0 | inactive: 0 | inactive: 0 | inactive: 0
16 | COc1cc(-c2cc(OP(=O)(O)O)cc(-c3cc(OC)c(OC)c(OC)c3)c2)cc(OC)c1OC [Stafia-1] (10 µM) | inactive: 0 | inactive: 0 | inactive: 0 | inactive: 0 | inactive: 0 | inactive: 0 | inactive: 0 | inactive: 0 | inactive: 0 | inactive: 0 | inactive: 0 | inactive: 0 | inactive: 0 | inactive: 0 | inactive: 0 | inactive: 0 | inactive: 0 | inactive: 0 | inactive: 0 | inactive: 0
17 | COC(=O)/C=C/c1ccccc1 [Methyl cinnamate] (10 µM) | inactive: 0 | inactive: 0 | inactive: 0 | inactive: 0 | inactive: 0 | inactive: 0 | inactive: 0 | inactive: 0 | inactive: 0 | inactive: 0 | inactive: 0 | inactive: 0 | inactive: 0 | inactive: 0 | inactive: 0 | inactive: 0 | inactive: 0 | inactive: 0 | inactive: 0 | inactive: 0
18 | CNC(=O)c1ccc2c(C(=Nc3cccc(CN(C)C)c3)c3ccccc3)c(O)[nH]c2c1 [MEK inhibitor] (10 µM) | inactive: 0 | inactive: 0 | inactive: 0 | inactive: 0 | inactive: 0 | inactive: 0 | inactive: 0 | inactive: 0 | inactive: 0 | inactive: 0 | inactive: 0 | inactive: 0 | inactive: 0 | inactive: 0 | inactive: 0 | inactive: 0 | inactive: 0 | inactive: 0 | inactive: 0 | inactive: 0

Two records drawn at random from those above, as already listed:
Row | Structure (SMILES) | kinase-Nluc reporter destabilization hit call (ABL1) | kinase-Nluc reporter destabilization hit call (AKT1) | kinase-Nluc reporter destabilization hit call (ALK) | kinase-Nluc reporter destabilization hit call (ARAF) | kinase-Nluc reporter destabilization hit call (AURKA) | kinase-Nluc reporter destabilization hit call (AURKB) | kinase-Nluc reporter destabilization hit call (AURKC) | kinase-Nluc reporter destabilization hit call (BLK) | kinase-Nluc reporter destabilization hit call (BMX) | kinase-Nluc reporter destabilization hit call (BRAF) | kinase-Nluc reporter destabilization hit call (BRAF_V600E) | kinase-Nluc reporter destabilization hit call (BTK) | kinase-Nluc reporter destabilization hit call (CAMK2A) | kinase-Nluc reporter destabilization hit call (CAMK2G) | kinase-Nluc reporter destabilization hit call (CDK10) | kinase-Nluc reporter destabilization hit call (CDK2) | kinase-Nluc reporter destabilization hit call (CDK3) | kinase-Nluc reporter destabilization hit call (CDK4) | kinase-Nluc reporter destabilization hit call (CDK5) | kinase-Nluc reporter destabilization hit call (CDK6)
3 | C=CC(=O)Nc1cccc(Oc2nc(Nc3ccc(N4CCN(C)CC4)c(F)c3)nc3[nH]ccc23)c1 [Avitinib (maleate)] (2.5 µM) | active: 1 | inactive: 0 | inactive: 0 | inactive: 0 | inactive: 0 | inactive: 0 | inactive: 0 | inactive: 0 | inactive: 0 | inactive: 0 | inactive: 0 | inactive: 0 | inactive: 0 | inactive: 0 | inactive: 0 | inactive: 0 | inactive: 0 | inactive: 0 | inactive: 0 | inactive: 0
13 | O=C(Nc1ccc(Cl)cc1)C1CCCN(C(=O)c2cc(C(F)(F)F)cc(C(F)(F)F)c2)C1 (stereo not given) (10 µM) | inactive: 0 | inactive: 0 | inactive: 0 | inactive: 0 | inactive: 0 | inactive: 0 | inactive: 0 | inactive: 0 | inactive: 0 | inactive: 0 | inactive: 0 | inactive: 0 | inactive: 0 | inactive: 0 | inactive: 0 | inactive: 0 | inactive: 0 | inactive: 0 | inactive: 0 | inactive: 0
